The record followed here is paper PMC3494694.

Amino acid sequences for entries named in this document (tags omitted). A change or cut given only in a name is not applied to a line headed by its entry.
UniProt C0KWE9: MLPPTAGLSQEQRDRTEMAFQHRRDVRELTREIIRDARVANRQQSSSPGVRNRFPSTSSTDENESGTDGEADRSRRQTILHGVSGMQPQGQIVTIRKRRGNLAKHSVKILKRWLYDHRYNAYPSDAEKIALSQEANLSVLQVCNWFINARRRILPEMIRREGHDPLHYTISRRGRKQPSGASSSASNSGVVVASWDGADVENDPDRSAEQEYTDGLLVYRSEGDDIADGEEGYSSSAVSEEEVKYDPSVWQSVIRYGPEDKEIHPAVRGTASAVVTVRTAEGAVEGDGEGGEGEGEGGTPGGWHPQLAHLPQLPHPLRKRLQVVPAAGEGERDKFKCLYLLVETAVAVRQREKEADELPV
UniProt D0V0M8: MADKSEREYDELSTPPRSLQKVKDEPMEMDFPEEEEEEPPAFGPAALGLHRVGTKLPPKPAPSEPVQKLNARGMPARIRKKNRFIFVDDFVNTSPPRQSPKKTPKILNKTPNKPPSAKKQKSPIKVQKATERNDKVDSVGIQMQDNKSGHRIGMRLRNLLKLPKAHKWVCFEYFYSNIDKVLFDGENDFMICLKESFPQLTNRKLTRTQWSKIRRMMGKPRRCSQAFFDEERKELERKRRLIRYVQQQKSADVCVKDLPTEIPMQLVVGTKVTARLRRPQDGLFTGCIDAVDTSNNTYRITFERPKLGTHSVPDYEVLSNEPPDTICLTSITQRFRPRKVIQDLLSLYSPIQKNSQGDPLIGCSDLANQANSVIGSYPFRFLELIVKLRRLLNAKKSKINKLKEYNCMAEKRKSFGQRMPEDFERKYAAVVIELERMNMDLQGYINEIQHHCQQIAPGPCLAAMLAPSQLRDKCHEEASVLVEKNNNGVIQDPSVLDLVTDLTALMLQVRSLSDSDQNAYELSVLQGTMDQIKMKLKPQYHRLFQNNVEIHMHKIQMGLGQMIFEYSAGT

These are yes or no findings as the source states them, for the method shown. Binding seen in cells or lysates may run through a third protein. A result given as binding can be weak or reduced; the word gives no strength.

Experiment [1] deals with BmTGIF-L (Bombyx mori (endogenous in testes)) (UniProt C0KWE9). Put plainly: co-IP; extracts of about 30 B. mori testes in RIPA buffer (50 mM Tris pH 7.5, 150 mM NaCl, 20 mM MgCl2, 0.5% NP40), precleared with pre-immune antiserum; IP with BmTGIF antibody (1:100) at 4°C overnight, protein G Plus/Protein A agarose, blot with anti-BmAly; and the reverse (IP with BmAly antibody, blot with BmTGIF antibody); control: pre-immune antiserum.

The target of experiment [2] is BmAly (Bombyx mori (endogenous in testes)) (UniProt D0V0M8). Described as above.

Take BmAly (from UniProt D0V0M8): the binding result in experiment [1] was “binds”. Regarding BmTGIF-L (from UniProt C0KWE9), the binding entry in experiment [2] is “binds”.
